Results as given in PMC11586526.
Results are given in words; binding and its absence hold for the method and conditions named. Binding seen in cells or lysates may run through a third protein. Some binding calls cover weakened binding; strength is not graded here. Sequences can lack the tags named with a protein.

By UniProt entry, the sequences of proteins in these tests, tags left out.
UniProt P19524: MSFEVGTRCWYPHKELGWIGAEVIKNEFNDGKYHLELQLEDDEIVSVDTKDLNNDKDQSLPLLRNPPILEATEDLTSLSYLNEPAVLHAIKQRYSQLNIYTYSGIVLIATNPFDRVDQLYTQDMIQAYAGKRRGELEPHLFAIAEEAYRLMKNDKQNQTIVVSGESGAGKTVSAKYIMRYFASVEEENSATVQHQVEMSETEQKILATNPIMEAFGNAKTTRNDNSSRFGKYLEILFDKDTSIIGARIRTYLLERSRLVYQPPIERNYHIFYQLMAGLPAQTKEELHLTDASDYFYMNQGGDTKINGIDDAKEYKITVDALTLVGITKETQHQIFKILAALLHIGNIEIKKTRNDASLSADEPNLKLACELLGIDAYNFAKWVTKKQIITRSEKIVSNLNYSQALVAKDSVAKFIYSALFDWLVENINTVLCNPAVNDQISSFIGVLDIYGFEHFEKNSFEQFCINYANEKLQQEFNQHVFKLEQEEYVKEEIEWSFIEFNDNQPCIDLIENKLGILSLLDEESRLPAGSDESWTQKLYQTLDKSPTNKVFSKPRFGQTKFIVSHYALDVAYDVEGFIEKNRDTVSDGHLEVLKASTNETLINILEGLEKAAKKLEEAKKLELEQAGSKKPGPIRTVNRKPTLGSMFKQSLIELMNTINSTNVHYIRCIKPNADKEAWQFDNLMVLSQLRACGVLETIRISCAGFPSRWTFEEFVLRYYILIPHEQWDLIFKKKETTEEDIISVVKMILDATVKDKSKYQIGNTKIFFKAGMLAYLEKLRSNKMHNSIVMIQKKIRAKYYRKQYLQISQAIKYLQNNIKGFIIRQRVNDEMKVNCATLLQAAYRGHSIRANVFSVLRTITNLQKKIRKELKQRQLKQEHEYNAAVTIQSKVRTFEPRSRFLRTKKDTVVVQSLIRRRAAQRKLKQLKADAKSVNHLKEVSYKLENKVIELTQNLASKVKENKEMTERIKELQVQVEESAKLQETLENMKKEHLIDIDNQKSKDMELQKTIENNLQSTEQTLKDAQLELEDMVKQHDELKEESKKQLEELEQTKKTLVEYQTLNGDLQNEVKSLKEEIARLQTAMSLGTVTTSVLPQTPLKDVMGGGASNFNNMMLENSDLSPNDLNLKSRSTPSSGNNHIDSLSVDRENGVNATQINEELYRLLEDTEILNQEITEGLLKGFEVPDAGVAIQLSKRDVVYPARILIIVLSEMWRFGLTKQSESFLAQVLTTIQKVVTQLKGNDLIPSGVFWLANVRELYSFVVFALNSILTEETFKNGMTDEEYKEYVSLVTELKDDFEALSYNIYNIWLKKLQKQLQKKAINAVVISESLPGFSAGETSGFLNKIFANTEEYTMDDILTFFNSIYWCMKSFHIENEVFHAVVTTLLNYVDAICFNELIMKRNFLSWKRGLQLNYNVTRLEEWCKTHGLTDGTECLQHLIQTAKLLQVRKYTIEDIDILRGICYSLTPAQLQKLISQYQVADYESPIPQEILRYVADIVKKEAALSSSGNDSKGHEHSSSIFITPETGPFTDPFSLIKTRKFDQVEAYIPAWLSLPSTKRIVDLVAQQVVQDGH

Biological target: Myo2 tagged with GFP in the genome (Myo2-GFP) (S. cerevisiae) (UniProt P19524)
Experiment: co-IP; Myo2-GFP affinity purified on GFP-Trap agarose from extracts of WT and kin4Δfrk1Δ yeast cells expressing Vac17-ProtA; blots with anti-GFP and PAP

binding: binds
B1: Vac17 tagged with Staphylococcus aureus protein A (Vac17-ProtA) (protein, UniProt P25591 1-423)
chain: MATQALEDITERLLIRSQEAILQLDLWIQRQQRSSICQTTDQESLDKLSQQYNQYMSQLNSLYVRSESVRDKLSKEQQRRLITEDNEHQRIEDLVREFQDITLRLNELATVPNEAPNDSPQSQSTRSSLGSFQPRPLKIIERQRLCMVTPSKPPKKSVGFNPINEVDCPSKTNSLPCSPKKQPARNRTLRAAKSHDTGLNKSKKPSSSDTYESFFKNRQRLSLTFFDEMDDEDFDSDQDTIILPNISTPPHVGVTAKGAEFEPLRRYNSHESILSNKPAPSKSLNLGSFSASFFRPSNPTFGTSISNVQVNCHPTVAATMAPSRNGPRISSSKALLSSFIARSDTHTVKENNTNLKHASFMDKFNSSLSTISESFQSKRGRKNKGMNEERISNHNVAQEQKNNMDISVSIEELQDALNTELLF
